Article PMC3787081, “The Heteromultimeric Debranching Enzyme Involved in Starch Synthesis in Arabidopsis Requires Both Isoamylase1 and Isoamylase2 Subunits for Complex Stability and Activity” (PLoS ONE, 2013)
Results are given in words; binding and its absence hold for the method and conditions named. Some binding calls cover weakened binding; strength is not graded here. For part of these data: Tags and fused reporters may be left off the sequences shown.

T1: ISA2-TAP (ISA2 with a C-terminal tandem affinity purification tag) (Arabidopsis) (UniProt Q8L735)
T1 sequence: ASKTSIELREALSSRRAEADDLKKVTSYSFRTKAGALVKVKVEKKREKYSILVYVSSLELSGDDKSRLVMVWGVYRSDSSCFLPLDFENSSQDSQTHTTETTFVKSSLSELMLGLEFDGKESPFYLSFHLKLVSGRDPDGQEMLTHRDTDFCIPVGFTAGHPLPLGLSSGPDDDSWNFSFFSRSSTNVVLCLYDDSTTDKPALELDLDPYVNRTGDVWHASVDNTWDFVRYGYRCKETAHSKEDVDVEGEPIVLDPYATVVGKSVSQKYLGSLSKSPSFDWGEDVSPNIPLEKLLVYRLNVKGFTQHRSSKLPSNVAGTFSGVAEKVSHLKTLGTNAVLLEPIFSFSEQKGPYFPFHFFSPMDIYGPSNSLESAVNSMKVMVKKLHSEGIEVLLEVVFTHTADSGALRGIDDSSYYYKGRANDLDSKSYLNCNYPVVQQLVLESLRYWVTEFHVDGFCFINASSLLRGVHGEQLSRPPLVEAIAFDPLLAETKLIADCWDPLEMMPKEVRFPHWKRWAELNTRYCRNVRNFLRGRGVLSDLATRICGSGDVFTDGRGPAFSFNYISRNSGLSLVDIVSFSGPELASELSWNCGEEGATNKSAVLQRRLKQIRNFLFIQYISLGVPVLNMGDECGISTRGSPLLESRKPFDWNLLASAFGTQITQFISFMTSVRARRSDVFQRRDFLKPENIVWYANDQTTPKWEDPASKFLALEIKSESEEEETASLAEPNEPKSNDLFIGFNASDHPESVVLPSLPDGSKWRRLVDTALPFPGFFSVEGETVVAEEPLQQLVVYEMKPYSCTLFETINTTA

T2: Isoamylase2 (ISA2), Arabidopsis, endogenous (Arabidopsis thaliana (endogenous in leaves)) (UniProt Q8L735)
T2 sequence: T1 sequence

T3: Recombinant Arabidopsis ISA2 (without transit peptide) (Arabidopsis) (UniProt Q8L735)
T3 sequence: T1 sequence

B1: Isoamylase1 (ISA1), Arabidopsis, endogenous (enzyme, UniProt O04196 44-783, looked up)
chain: AKDRRSNEAENIAVVEKPLKSDRFFISDGLPSPFGPTVRDDGVNFSVYSTNSVSATICLISLSDLRQNKVTEEIQLDPSRNRTGHVWHVFLRGDFKDMLYGYRFDGKFSPEEGHYYDSSNILLDPYAKAIISRDEFGVLGPDDNCWPQMACMVPTREEEFDWEGDMHLKLPQKDLVIYEMHVRGFTRHESSKIEFPGTYQGVAEKLDHLKELGINCIELMPCHEFNELEYYSYNTILGDHRVNFWGYSTIGFFSPMIRYASASSNNFAGRAINEFKILVKEAHKRGIEVIMDVVLNHTAEGNEKGPIFSFRGVDNSVYYMLAPKGEFYNYSGCGNTFNCNHPVVRQFILDCLRYWVTEMHVDGFRFDLGSIMSRSSSLWDAANVYGADVEGDLLTTGTPISCPPVIDMISNDPILRGVKLIAEAWDAGGLYQVGMFPHWGIWSEWNGKFRDVVRQFIKGTDGFSGAFAECLCGSPNLYQGGRKPWHSINFICAHDGFTLADLVTYNNKNNLANGEENNDGENHNYSWNCGEEGDFASISVKRLRKRQMRNFFVSLMVSQGVPMIYMGDEYGHTKGGNNNTYCHDNYMNYFRWDKKEEAHSDFFRFCRILIKFRDECESLGLNDFPTAKRLQWHGLAPEIPNWSETSRFVAFSLVDSVKKEIYVAFNTSHLATLVSLPNRPGYRWEPFVDTSKPSPYDCITPDLPERETAMKQYRHFLDANVYPMLSYSSIILLLSPIKDP
notes: Isoamylase 1 (ISA1) of Arabidopsis thaliana, endogenous protein in soluble leaf extracts; Chloroplast protein; also called AtISA1; source: endogenous, Arabidopsis leaf extracts (wild type and ISA2-TAP plants)
B2: Recombinant Arabidopsis ISA1 (without transit peptide) (enzyme, UniProt O04196 44-783)
chain: B1 chain

Tests used:
[1] = target: T1, ISA2-TAP (ISA2 with a C-terminal tandem affinity purification tag) (Arabidopsis); assay: SEC; extract of ISA2-TAP transformed plants, gel filtration followed by immunoblotting; data not shown
[2] = target: T2, Isoamylase2 (ISA2), Arabidopsis, endogenous (Arabidopsis thaliana (endogenous in leaves)); assay: SEC; crude extract of wild-type Arabidopsis leaves on a calibrated Sephacryl HiLoad 200 prep grade column, 100 mM Tris-HCl pH 7.5, 300 mM KCl, 5 mM DTT, 4°C; fractions analysed by SDS-PAGE and immunoblot with ISA1- and ISA2-specific antibodies
[3] = target: T3, Recombinant Arabidopsis ISA2 (without transit peptide) (Arabidopsis); assay: SEC; extract of E. coli cells co-expressing ISA1 and ISA2 on a Sephacryl HiLoad 200 prep grade column, 100 mM Tris-HCl pH 7.5, 300 mM KCl, 5 mM DTT, 4°C; fractions analysed by SDS-PAGE and immunoblot

| binding [1] | binding [2] | binding [3] | Binder |
| --- | --- | --- | --- |
| binds | binds | – | B1 |
| – | – | binds | B2 |
